Tests used:
TDP-43 = test: Motor neuron culture with Aβ1-42 insult: extranuclear TDP-43 accumulation; type: cell-based, rat; details: 5 μM riluzole, 24 hours; control cells increased by 191%
Protocol: (§1) Primary motor neuron (MN) cultures generated from rat spinal cord were treated with 20 μM amyloid beta 1-42 peptide (Aβ1-42). […] This model was used to determine the effect of tacrolimus on TDP-43 toxicity in motor neurons. […] After permeabilisation with 0.1% saponin, one group of cells was incubated for 2 hours with a) mouse monoclonal anti-microtubule-associated-protein 2 (MAP-2) antibody, and b) rabbit polyclonal anti-TDP-43 antibody. The anti-MAP-2 antibody was used to determine MN survival (number of stained MN) and MN neurite length. The anti-TDP-43 antibody was used to examine extranuclear TDP-43: the area of extranuclear TDP-43 staining per MN was calculated by normalising to the number of MAP-2 positive cells.

[1] = system: primary motor neuron (MN) cultures generated from rat spinal cord; test: Motor neuron culture with Aβ1-42 insult: neurite network and survival (MAP-2 staining); type: cell-based; details: 10 μM riluzole
Protocol: as §1

For Nc1nc2ccc(OC(F)(F)F)cc2s1 [riluzole, Riluzole], the “increase of TDP-43:MN ratio in response to Aβ1-42 insult relative to unchallenged cells” value (TDP-43) was 51% and the “toxicity to motor neuron culture” value [1] was “toxic to the cells”.

— US20180085356A1, “METHOD OF TREATING DISEASE CHARACTERISED BY PROTEIN AGGREGATE DEPOSITION IN NEURONAL CELLS” (CHRONOS THERAPEUTICS LIMITED, priority 2013, published 2018)
